Reference: the supplement of paper PMC6411743
± gives the standard deviation of the averaged measurements. The entries are a selection whose mix differs from that of the whole data set.

Protein sequences, listed by entry. Tags and fused reporters are not part of them. Lines headed by an entry give the natural chain unless they say otherwise; changes in a name come on top.
UniProt Q9Y2L5: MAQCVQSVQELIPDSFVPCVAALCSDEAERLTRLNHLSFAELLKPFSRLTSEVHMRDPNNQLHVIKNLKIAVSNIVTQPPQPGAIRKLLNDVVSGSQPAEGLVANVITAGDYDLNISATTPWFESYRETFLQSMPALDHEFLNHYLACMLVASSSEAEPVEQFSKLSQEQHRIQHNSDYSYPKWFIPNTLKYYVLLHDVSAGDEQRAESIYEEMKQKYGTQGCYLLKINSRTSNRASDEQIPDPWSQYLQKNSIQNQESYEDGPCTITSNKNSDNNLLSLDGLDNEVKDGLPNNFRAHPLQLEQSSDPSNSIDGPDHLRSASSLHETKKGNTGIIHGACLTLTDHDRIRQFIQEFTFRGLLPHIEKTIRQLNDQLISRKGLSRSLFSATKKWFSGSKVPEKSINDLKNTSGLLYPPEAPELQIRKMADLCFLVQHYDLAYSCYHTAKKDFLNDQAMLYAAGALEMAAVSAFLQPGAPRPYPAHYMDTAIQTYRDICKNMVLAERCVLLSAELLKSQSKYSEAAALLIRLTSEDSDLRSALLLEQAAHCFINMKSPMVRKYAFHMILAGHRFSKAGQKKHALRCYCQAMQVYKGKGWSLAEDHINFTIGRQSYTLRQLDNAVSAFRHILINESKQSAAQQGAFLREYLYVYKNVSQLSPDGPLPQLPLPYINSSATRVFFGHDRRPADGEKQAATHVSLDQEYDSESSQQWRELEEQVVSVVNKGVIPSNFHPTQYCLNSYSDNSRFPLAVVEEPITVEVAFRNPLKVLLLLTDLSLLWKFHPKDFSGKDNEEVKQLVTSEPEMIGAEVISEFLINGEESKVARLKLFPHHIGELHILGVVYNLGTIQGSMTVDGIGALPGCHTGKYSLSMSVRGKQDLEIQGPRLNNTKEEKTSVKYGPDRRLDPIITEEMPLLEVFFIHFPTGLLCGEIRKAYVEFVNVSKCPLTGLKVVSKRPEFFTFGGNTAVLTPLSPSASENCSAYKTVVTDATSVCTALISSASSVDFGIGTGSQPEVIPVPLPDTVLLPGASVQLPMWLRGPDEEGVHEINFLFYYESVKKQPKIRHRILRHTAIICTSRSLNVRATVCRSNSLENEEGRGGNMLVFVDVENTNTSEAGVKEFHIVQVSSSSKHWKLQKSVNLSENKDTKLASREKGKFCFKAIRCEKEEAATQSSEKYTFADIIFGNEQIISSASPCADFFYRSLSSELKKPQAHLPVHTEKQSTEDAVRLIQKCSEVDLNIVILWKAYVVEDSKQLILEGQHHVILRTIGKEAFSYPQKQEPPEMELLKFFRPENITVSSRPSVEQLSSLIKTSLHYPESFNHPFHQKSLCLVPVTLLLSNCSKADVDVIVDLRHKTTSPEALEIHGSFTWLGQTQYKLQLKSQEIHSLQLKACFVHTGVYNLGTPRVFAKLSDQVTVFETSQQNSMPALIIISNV
UniProt Q9Y2T7, whole entry: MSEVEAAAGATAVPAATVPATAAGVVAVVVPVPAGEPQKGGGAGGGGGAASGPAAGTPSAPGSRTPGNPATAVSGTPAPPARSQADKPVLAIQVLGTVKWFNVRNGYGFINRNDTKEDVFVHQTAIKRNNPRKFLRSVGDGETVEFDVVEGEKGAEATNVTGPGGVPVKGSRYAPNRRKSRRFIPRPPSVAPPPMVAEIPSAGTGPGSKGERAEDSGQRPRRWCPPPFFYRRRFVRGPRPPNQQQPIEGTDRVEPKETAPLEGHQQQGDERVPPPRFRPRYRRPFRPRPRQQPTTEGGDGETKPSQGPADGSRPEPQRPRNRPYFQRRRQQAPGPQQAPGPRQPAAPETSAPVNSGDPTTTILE
UniProt Q9Y2C4: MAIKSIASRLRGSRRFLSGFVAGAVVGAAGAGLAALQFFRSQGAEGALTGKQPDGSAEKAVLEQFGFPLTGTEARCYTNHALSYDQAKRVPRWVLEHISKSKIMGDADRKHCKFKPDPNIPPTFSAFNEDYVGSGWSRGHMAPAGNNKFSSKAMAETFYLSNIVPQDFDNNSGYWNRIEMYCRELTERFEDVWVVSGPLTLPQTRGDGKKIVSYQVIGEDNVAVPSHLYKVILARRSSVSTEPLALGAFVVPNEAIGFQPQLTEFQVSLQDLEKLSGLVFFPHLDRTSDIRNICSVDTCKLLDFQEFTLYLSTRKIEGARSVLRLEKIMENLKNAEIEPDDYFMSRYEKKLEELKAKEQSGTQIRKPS
UniProt Q9Y4P8: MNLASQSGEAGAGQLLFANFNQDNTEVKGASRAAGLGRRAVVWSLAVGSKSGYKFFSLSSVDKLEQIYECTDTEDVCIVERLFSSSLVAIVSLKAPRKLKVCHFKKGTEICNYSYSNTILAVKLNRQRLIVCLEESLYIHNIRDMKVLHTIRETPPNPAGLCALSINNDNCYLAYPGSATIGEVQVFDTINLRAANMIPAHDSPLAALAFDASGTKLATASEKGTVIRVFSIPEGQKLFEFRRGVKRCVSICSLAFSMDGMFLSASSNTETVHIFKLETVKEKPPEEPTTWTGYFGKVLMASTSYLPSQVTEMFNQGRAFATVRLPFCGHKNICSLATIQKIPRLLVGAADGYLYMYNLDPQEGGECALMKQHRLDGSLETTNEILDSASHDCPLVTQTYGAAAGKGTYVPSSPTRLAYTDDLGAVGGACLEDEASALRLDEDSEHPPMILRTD
UniProt Q9Y5M8: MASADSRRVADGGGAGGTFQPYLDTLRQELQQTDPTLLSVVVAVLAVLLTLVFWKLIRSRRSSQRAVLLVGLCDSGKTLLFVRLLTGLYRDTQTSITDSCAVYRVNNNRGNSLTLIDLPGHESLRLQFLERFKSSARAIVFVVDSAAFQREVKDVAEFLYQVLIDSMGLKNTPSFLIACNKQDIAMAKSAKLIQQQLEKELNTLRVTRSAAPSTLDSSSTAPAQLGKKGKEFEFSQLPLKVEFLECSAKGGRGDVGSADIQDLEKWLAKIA
UniProt Q9Y5Y2: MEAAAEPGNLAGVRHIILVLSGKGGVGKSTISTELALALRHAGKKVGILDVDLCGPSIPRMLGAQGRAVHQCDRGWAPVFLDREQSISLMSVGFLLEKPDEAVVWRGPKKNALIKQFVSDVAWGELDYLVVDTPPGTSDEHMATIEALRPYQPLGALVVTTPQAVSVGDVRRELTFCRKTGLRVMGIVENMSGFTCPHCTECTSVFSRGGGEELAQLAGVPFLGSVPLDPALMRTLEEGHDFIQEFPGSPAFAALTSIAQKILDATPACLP
UniProt Q9Y6A4: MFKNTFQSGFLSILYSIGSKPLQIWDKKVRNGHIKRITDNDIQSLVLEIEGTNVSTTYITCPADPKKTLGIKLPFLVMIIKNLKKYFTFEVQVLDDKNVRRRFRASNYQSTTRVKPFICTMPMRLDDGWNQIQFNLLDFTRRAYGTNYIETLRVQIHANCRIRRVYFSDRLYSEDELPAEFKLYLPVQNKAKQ
UniProt Q9Y6Y8: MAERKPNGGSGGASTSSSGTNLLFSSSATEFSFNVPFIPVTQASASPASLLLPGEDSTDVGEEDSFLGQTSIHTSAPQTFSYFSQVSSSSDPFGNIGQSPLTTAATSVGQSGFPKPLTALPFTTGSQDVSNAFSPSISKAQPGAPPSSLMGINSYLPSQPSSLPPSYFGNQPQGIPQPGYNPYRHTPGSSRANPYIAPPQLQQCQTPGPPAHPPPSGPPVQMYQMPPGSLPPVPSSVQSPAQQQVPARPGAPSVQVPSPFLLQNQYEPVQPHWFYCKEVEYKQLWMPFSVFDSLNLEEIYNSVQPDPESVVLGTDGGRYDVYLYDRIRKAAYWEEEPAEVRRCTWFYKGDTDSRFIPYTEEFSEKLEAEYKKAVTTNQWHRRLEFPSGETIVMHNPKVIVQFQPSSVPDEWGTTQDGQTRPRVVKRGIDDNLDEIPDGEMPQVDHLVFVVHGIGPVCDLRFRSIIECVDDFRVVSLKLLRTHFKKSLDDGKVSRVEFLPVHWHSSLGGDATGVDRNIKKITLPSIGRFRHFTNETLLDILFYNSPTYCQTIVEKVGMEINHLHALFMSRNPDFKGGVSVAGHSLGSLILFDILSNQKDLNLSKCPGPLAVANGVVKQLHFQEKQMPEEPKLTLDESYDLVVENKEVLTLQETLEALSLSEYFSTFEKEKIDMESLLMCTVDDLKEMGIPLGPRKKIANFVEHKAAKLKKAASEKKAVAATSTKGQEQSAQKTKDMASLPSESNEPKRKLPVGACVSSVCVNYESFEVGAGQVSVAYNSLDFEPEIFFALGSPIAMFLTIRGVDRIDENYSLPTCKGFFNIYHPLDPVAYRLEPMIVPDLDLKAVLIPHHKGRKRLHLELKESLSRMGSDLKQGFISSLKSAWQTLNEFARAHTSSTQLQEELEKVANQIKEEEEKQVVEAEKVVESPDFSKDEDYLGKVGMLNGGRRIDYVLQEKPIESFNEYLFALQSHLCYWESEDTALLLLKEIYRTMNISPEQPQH
UniProt Q9Y5B9, whole entry: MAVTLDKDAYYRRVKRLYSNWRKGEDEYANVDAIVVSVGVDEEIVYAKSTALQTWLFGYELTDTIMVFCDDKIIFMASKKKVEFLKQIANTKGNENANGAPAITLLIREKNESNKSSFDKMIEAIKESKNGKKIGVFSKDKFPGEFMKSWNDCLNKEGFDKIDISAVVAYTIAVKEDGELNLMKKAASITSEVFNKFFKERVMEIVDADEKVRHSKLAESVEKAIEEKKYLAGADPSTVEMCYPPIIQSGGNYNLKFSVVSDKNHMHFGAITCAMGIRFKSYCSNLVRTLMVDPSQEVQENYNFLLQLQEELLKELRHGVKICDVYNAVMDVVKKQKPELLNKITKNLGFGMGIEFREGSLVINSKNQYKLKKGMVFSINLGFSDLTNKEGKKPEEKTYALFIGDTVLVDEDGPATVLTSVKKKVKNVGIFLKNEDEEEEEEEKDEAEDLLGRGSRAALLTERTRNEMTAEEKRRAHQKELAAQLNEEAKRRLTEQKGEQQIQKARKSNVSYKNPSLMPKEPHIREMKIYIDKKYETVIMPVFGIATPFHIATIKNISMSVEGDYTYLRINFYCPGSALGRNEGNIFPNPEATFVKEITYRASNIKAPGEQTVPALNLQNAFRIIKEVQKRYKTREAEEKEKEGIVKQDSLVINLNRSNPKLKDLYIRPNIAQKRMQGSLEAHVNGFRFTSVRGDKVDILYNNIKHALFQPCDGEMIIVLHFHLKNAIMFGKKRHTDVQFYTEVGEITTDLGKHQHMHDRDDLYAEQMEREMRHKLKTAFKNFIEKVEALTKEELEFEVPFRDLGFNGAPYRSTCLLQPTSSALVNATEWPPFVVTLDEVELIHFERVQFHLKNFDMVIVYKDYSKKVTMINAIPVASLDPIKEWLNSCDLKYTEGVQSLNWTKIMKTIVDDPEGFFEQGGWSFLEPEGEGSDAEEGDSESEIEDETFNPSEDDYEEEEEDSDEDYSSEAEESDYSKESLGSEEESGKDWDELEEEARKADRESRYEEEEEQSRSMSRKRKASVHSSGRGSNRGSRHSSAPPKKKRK
UniProt Q9Y3P9: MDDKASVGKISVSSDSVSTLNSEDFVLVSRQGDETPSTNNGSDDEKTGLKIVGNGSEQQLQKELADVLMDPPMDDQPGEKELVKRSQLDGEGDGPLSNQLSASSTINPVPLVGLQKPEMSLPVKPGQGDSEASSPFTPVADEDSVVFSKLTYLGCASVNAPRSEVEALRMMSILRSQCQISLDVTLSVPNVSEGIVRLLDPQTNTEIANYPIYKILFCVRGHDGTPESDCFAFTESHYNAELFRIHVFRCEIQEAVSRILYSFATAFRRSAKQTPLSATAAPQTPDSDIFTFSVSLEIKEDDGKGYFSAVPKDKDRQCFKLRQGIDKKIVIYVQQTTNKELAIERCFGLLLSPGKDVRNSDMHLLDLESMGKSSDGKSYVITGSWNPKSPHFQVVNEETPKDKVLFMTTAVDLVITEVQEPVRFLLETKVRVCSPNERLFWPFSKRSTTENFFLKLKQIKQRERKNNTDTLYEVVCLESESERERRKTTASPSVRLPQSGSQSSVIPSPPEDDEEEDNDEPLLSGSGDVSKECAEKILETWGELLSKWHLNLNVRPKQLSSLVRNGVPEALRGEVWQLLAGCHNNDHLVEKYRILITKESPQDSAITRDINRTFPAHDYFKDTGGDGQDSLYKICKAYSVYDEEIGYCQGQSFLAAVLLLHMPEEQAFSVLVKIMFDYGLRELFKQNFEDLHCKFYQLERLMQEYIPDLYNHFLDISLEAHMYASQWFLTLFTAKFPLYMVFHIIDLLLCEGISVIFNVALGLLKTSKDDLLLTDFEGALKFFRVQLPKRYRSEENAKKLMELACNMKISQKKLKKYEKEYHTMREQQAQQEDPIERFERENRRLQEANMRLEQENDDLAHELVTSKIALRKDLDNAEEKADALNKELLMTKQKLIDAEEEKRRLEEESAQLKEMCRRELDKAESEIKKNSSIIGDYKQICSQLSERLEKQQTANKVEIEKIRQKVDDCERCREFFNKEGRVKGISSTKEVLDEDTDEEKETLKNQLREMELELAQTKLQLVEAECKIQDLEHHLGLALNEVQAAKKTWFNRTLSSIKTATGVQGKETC

Compound: Nc1ncnc2c1ncn2[C@@H]1O[C@H](COP(=O)(O)OP(=O)(O)OP(=O)(O)O)[C@@H](O)[C@H]1O [adenosine triphosphate]
Assay: NP40-soluble protein abundance relative to vehicle (solubility fold change) (ratio); higher = more soluble protein in presence of ATP
Outline: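 Data come from three independent experiments in which Dounce-homogenised Jurkat crude lysate was treated at eight concentrations from 0.1 to 10 mM. Treatment ran 10 min at room temperature and then 3 min at 37 °C, after which 0.8% NP40 and benzonase were added for 60 min at 4 °C before ultracentrifugation. The supernatant underwent TMT labelling and LC-MS/MS, and vsn-normalised intensities were expressed as fold change against the detergent-processed vehicle in each replicate.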

Target	NP40-soluble protein abundance (concentration: 1mM)	NP40-soluble protein abundance (concentration: 2mM)	NP40-soluble protein abundance (concentration: 4mM)	NP40-soluble protein abundance (concentration: 6mM)	NP40-soluble protein abundance (concentration: 8mM)	NP40-soluble protein abundance (concentration: 10mM)
UniProt Q9Y2L5 and related entries	1.02 ± 0.068	1.01 ± 0.056	1.01 ± 0.035	0.974 ± 0.045	1.018 ± 0.0094	0.984 ± 0.041
YBX2 (UniProt Q9Y2T7)	1.23 ± 0.37	1.06 ± 0.086	1.02 ± 0.024	1.12 ± 0.037	0.99 ± 0.058	1.03 ± 0.037
UniProt Q9Y2H6 and related entries	1.03 ± 0.059	1.05 ± 0.041	1.04 ± 0.063	1.04 ± 0.037	1.02 ± 0.043	1.04 ± 0.054
UniProt Q9Y2C4 and related entries	1.1 ± 0.03	1.07 ± 0.058	1.12 ± 0.043	1.08 ± 0.046	1.09 ± 0.038	1.07 ± 0.011
UniProt Q9Y4P8 and related entries	1.02 ± 0.11	1.07 ± 0.077	1.05 ± 0.12	0.949 ± 0.08	0.933 ± 0.077	1 ± 0.12
SRPRB (UniProt Q9Y5M8)	1.03 ± 0.052	1.04 ± 0.05	1.01 ± 0.035	1.1 ± 0.07	1.01 ± 0.024	1.01 ± 0.0056
UniProt Q9Y2D5 and related entries	0.913 ± 0.07	0.982 ± 0.044	1.07 ± 0.038	1.19 ± 0.05	1.15 ± 0.024	1.19 ± 0.035
UniProt Q9Y2G2-4|Q9Y2G2-5	0.902 ± 0.08	0.912 ± 0.033	0.937 ± 0.057	1 ± 0.031	0.944 ± 0.074	0.929 ± 0.093
NUBP2 (UniProt Q9Y5Y2)	1 ± 0.065	1.02 ± 0.032	1.03 ± 0.047	1.01 ± 0.033	1 ± 0.026	1.03 ± 0.012
UniProt Q9Y6A4	1.01 ± 0.14	1.04 ± 0.13	1.05 ± 0.095	1.02 ± 0.18	1.1 ± 0.09	1.12 ± 0.06
SEC23IP (UniProt Q9Y6Y8)	0.9694 ± 0.0028	0.934 ± 0.034	0.928 ± 0.027	0.943 ± 0.02	0.927 ± 0.02	0.9191 ± 0.008
SUPT16H (UniProt Q9Y5B9)	1.06 ± 0.025	1.13 ± 0.038	1.17 ± 0.03	1.23 ± 0.028	1.28 ± 0.02	1.45 ± 0.026
RABGAP1 (UniProt Q9Y3P9)	0.968 ± 0.017	0.96 ± 0.018	0.961 ± 0.015	0.967 ± 0.043	0.963 ± 0.01	0.952 ± 0.034
UniProt Q9Y371 and related entries	0.934 ± 0.028	0.925 ± 0.013	0.928 ± 0.015	0.973 ± 0.02	0.922 ± 0.03	0.916 ± 0.053
UniProt Q9Y5S9 and related entries	0.959 ± 0.023	0.978 ± 0.023	0.918 ± 0.028	1 ± 0.032	0.961 ± 0.082	0.957 ± 0.033

An excerpt of the results above:
Target	NP40-soluble protein abundance (concentration: 1mM)	NP40-soluble protein abundance (concentration: 2mM)	NP40-soluble protein abundance (concentration: 4mM)	NP40-soluble protein abundance (concentration: 6mM)	NP40-soluble protein abundance (concentration: 8mM)	NP40-soluble protein abundance (concentration: 10mM)
UniProt Q9Y2C4 and related entries	1.1 ± 0.03	1.07 ± 0.058	1.12 ± 0.043	1.08 ± 0.046	1.09 ± 0.038	1.07 ± 0.011
UniProt Q9Y4P8 and related entries	1.02 ± 0.11	1.07 ± 0.077	1.05 ± 0.12	0.949 ± 0.08	0.933 ± 0.077	1 ± 0.12
